This assay concerns L1210 leukemia ip in BDF1 mice, survival T/C. Description: NCI In Vivo Anticancer Drug Screen. Data for tumor model L1210 Leukemia (intraperitoneal) in B6D2F1 (BDF1) mice. Conditions: T/C endpoint: mean survival time, higher T/C = longer survival.
[1] abbreviates: dose: 400.0 mg/kg/injection, schedule: Q04DX003 (ip), vehicle: Klucel (hydroxypropylcellulose) (HPC).
The mark [2] stands for this setting: dose: 400.0 mg/kg/injection, schedule: Q01DX009 (ip), vehicle: Klucel (hydroxypropylcellulose) (HPC).
[3] abbreviates: dose: 200.0 mg/kg/injection, schedule: Q01DX001 (ip), vehicle: carboxymethylcellulose (CMC).
The mark [4] stands for this setting: dose: 100.0 mg/kg/injection, schedule: Q01DX009 (ip), vehicle: saline with Tween-80.
The mark [5] stands for this setting: dose: 200.0 mg/kg/injection, schedule: Q01DX009 (ip), vehicle: saline with Tween-80.
[6] abbreviates: dose: 200.0 mg/kg/injection, schedule: Q04DX003 (ip), vehicle: saline with Tween-80.
[7] abbreviates: dose: 100.0 mg/kg/injection, schedule: Q01DX001 (ip), vehicle: saline with Tween-80.
Setting [8] is: dose: 200.0 mg/kg/injection, schedule: Q01DX001 (ip), vehicle: saline with Tween-80.
Where [9] appears, read: dose: 400.0 mg/kg/injection, schedule: Q01DX001 (ip), vehicle: saline with Tween-80.
Setting [10] is: dose: 400.0 mg/kg/injection, schedule: Q04DX003 (ip), vehicle: saline with Tween-80.
Where [11] appears, read: dose: 200.0 mg/kg/injection, schedule: Q04DX003 (ip), vehicle: saline.
Setting [12] is: dose: 400.0 mg/kg/injection, schedule: Q04DX003 (ip), vehicle: saline.
[13] abbreviates: dose: 100.0 mg/kg/injection, schedule: Q01DX009 (ip), vehicle: Klucel (hydroxypropylcellulose) (HPC).
[14] abbreviates: dose: 200.0 mg/kg/injection, schedule: Q01DX009 (ip), vehicle: Klucel (hydroxypropylcellulose) (HPC).
Where [15] appears, read: dose: 300.0 mg/kg/injection, schedule: Q01DX001 (ip), vehicle: carboxymethylcellulose (CMC).

The list does not hold the whole screen: it is rich in T/C values a quarter to a half above the control, in often repeated tests (any T/C) and in doses without a T/C. Further doses and runs are listed elsewhere. T/C is the treated group as % of the vehicle group. Some entries give survivors of the animals treated and no T/C: the source holds a T/C of zero for them, seemingly a mark for toxic or unscored doses. Some doses without a T/C left all or most animals alive at the check, yet need not have been tolerated: the source hardly ever lists a survival T/C far under the control, and the zero likely stands for such cases as well. Counts of survivors are from the toxicity check (mostly the fifth day) where no day follows; animals may have died later. Schedule codes are those of the source, read here as Q, the interval in days (D) or hours (H), X, the number of doses. Where survival is the endpoint, the PubChem record calls one and a half times the control and up active, and a quarter to a half above the control has no call in these data; cut-offs in other NCI protocols can differ.

As to `O=C(CCCN1CCC2(CC1)OC(=O)N(c1ccccc1)C2=O)c1ccc(F)cc1`, the survivor count under setting [1] is recorded as 0 of 6.

Regarding `CC(C)(CO)NCc1ccc(Cl)c(Cl)c1`, the survivor count under setting [2] is listed as 3 of 6.

Consider `Cc1ccc(NC(=O)N(CCBr)N=O)cc1`, for which the T/C is 140 % of control (dose: 177.0 mg/kg/injection, schedule: Q01DX001 (ip), vehicle: carboxymethylcellulose (CMC)) and 147 % of control under setting [3]. In addition, the survivor count (dose: 200.0 mg/kg/injection, schedule: Q01DX015 (ip), vehicle: carboxymethylcellulose (CMC)) is on record as 5 of 6 and the survivor count (dose: 600.0 mg/kg/injection, schedule: Q01DX001 (ip), vehicle: carboxymethylcellulose (CMC)) is listed as 1 of 4.

In the case of `COC(=O)c1n[nH]c(C(C)C)c1N=NN(C)C`, the T/C under setting [4] was 137 % of control and the T/C under setting [6] was 129 % of control. Also, the survivor count under setting [5] is 6 of 6.

For the compound `CS(=O)(=O)c1ccccc1C(=O)O`, under “dose: 400.0 mg/kg/injection, schedule: Q01DX001 (ip), vehicle: acetone”, the survivor count is reported as 3 of 6.

`O=[As](O)(CC(O)c1ccccc1)c1ccc(Cl)cc1` (configuration not stated): the survivor count was 0 of 6 (dose: 50.0 mg/kg/injection, schedule: Q01DX001 (ip), vehicle: saline with Tween-80); 0 of 6 under setting [7]; 0 of 6 under setting [8]; 0 of 6 under setting [9].

Regarding `Cc1cc(CC#N)c(CC#N)cc1C`, the survivor count reads like this: under setting [3], 2 of 6; (dose: 200.0 mg/kg/injection, schedule: Q01DX009 (ip), vehicle: carboxymethylcellulose (CMC)) 0 of 3; (dose: 200.0 mg/kg/injection, schedule: Q04DX003 (ip), vehicle: carboxymethylcellulose (CMC)) 0 of 6.

With `CCNC(=S)N(CC)CC`, the survivor count under setting [10] was 0 of 6.

For `CC(=O)N(NC(C)C)C(C)C`, the survivor count (dose: 200.0 mg/kg/injection, schedule: Q01DX009 (ip), vehicle: saline) is 0 of 6; the survivor count under setting [11] is 4 of 4; the survivor count (dose: 400.0 mg/kg/injection, schedule: Q01DX009 (ip), vehicle: saline) is recorded as 0 of 6; the survivor count under setting [12] is listed as 0 of 4.

Regarding `CN(C)C1CC[N-]CC1.CN(C)C1CC[N-]CC1.[Cl][Pt+2][Cl]`, the survivor count runs as follows: (dose: 100.0 mg/kg/injection, schedule: Q01DX009 (ip), vehicle: saline) 2 of 6; under setting [11], 3 of 6; under setting [12], 0 of 6.

Consider `CCCCCCC(=O)/C=C/c1ccc(Cl)c(Cl)c1`, for which the survivor count (dose: 400.0 mg/kg/injection, schedule: Q01DX009 (ip), vehicle: acetone) was 2 of 6.

On to `O=C(O)C[As](=O)(O)O`, for which the survivor count (dose: 15.0 mg/kg/injection, schedule: Q01DX009 (ip), vehicle: saline) was 1 of 3.

For `Cc1cc(C)[nH]c(=S)n1`, under setting [12], the survivor count is on record as 6 of 6.

Turning to `COc1ccc2c3c(ccc2c1)C(=O)/C(=C\O)CC3`, the survivor count under setting [13] is 5 of 6, the survivor count under setting [14] is 2 of 6, the survivor count under setting [2] is on record as 0 of 6 and the survivor count under setting [1] is reported as 1 of 6.

Turning to `O=C1NC2C3C=CC(C3)C12` (configuration not stated), the survivor count (dose: 200.0 mg/kg/injection, schedule: Q04DX002 (ip), vehicle: Klucel (hydroxypropylcellulose) (HPC)) is recorded as 1 of 3 and the survivor count (dose: 400.0 mg/kg/injection, schedule: Q04DX002 (ip), vehicle: Klucel (hydroxypropylcellulose) (HPC)) is 0 of 3.

On to `O=C1CCCc2c1ccc1ccccc21`, for which, under setting [14], the survivor count is recorded as 5 of 6.

Consider `Nc1nc2nc3c(nc2c(=O)[nH]1)CN(C1CCCCC1)C3=O`, for which, under setting [15], the survivor count is reported as 1 of 6.

Regarding `CCOC(=O)c1c(NC(=O)CCC(=O)Nc2sc(C)c(C)c2C(=O)OCC)sc(C)c1C`, the survivor count is 6 of 6 (dose: 50.0 mg/kg/injection, schedule: Q01DX009 (ip), vehicle: Klucel (hydroxypropylcellulose) (HPC)) and 6 of 6 under setting [14].

Regarding `CC1CN(C(C)(C)C)C1`, the survivor count was 0 of 6 (dose: 200.0 mg/kg/injection, schedule: Q04DX003 (ip), vehicle: acetone) and 0 of 6 (dose: 400.0 mg/kg/injection, schedule: Q04DX003 (ip), vehicle: acetone).

For `Nc1ccn(CC(=O)c2cccs2)c(=O)n1`, the survivor count is 0 of 6 under setting [5]; 1 of 6 (dose: 400.0 mg/kg/injection, schedule: Q01DX009 (ip), vehicle: saline with Tween-80); 2 of 6 under setting [10].

Consider `C(=C(c1ccccc1)c1ccccc1)c1ccccn1`, for which the survivor count under setting [10] is 6 of 6.

Take `Cc1ccc(N2CCN(C(C)(C)C#N)CC2)cc1`: the survivor count (dose: 400.0 mg/kg/injection, schedule: Q01DX001 (ip), vehicle: saline) is reported as 0 of 6.

As for `COc1cc2c3c(c1)/C(=N\N)CCN3CCC2`, the survivor count is, setting by setting: (dose: 50.0 mg/kg/injection, schedule: Q01DX009 (ip), vehicle: saline with Tween-80) 6 of 6; under setting [4], 6 of 6; under setting [10], 0 of 6.

On to `CSc1ncc(C#N)c(N)n1`, for which, under setting [10], the survivor count is 2 of 6.

Consider `NC(=O)C1=C(CCCCl)c2ccccc2C1=O`, for which the survivor count reads like this: under setting [4], 4 of 6; under setting [5], 2 of 6.

`CN(C)CC1CCCCN1` (configuration not stated): under setting [12], the survivor count was 6 of 6.

Turning to `O=c1c(O)c(O)c1=O`, under setting [15], the survivor count is 1 of 6.

In the case of `Cc1ccccc1N=NN(C)C`, the survivor count (dose: 400.0 mg/kg/injection, schedule: Q01DX001 (ip), vehicle: carboxymethylcellulose (CMC)) was 1 of 4.

`CCOC(=O)CSC1=C(N)C(=O)c2ccccc2C1=O`: the survivor count is on record as 1 of 3 under setting [7], 1 of 3 under setting [8] and 0 of 3 under setting [9].

`N#Cc1cnc(N)c(C#N)c1`: the survivor count (dose: 300.0 mg/kg/injection, schedule: Q01DX009 (ip), vehicle: Klucel (hydroxypropylcellulose) (HPC)) was 0 of 6.

As to `Cc1cc(O)ccc1C1=[N+](C)CC(C)S1` (configuration not stated), the survivor count (dose: 100.0 mg/kg/injection, schedule: Q04DX002 (ip), vehicle: saline) is given as 0 of 3; the survivor count (dose: 200.0 mg/kg/injection, schedule: Q04DX002 (ip), vehicle: saline) is 0 of 3; the survivor count (dose: 400.0 mg/kg/injection, schedule: Q04DX002 (ip), vehicle: saline) is reported as 0 of 3.

For the compound `C[CH2][Sb]([CH2]C)([CH2]C)([O]C(C)=O)[O]C(C)=O`, the survivor count is, setting by setting: (dose: 100.0 mg/kg/injection, schedule: Q04DX002 (ip), vehicle: saline with Tween-80) 0 of 3; (dose: 200.0 mg/kg/injection, schedule: Q04DX002 (ip), vehicle: saline with Tween-80) 0 of 3; (dose: 400.0 mg/kg/injection, schedule: Q04DX002 (ip), vehicle: saline with Tween-80) 0 of 3.

Consider `O=NN(CCF)C(=O)NC1CCSCC1`, for which the survivor count runs as follows: (dose: 81.0 mg/kg/injection, schedule: Q01DX001 (ip), vehicle: other) 5 of 10; (dose: 121.0 mg/kg/injection, schedule: Q01DX001 (ip), vehicle: other) 2 of 10.

Regarding `CC(=O)Nc1cc(C)cc(NC(C)=O)c1C`, where the note is “dose: 150.0 mg/kg/injection, schedule: Q01DX001 (ip), vehicle: carboxymethylcellulose (CMC)”, the survivor count is on record as 6 of 6.

In the case of `COc1cc2c(cc1OC)C13CCN4CC5=CCOC6CCN2C1C6C5CC43` (configuration not stated), the survivor count is given as 1 of 3 under setting [6] and 0 of 3 under setting [10].

Consider `CCC(=O)Nc1cccc2ccccc12`, for which the survivor count by setting is: under setting [13], 6 of 6; under setting [14], 0 of 6; under setting [1], 1 of 6.

The values are drawn from PubChem BioAssay AID248 (DTP/NCI, 2004).
